The source of these data is paper PMC6390652 (Toxicological Sciences, 2018).

One data set relates to human GI microtissue. Description: MTT viability assay. The format is cell-based. To be noted: Caco-2, read-out: MTT IC50. Background: Formazan colour is commonly taken as a measure of viable cells.
The next data set deals with Caco-2 cells. To be noted: human.

The IC50 is the concentration at which inhibition is half-maximal.

For the compound `O=C(CCCN1CCC(O)(c2ccc(Cl)cc2)CC1)c1ccc(F)cc1` [Haloperidol], in the data set on human GI microtissue, the concentration for half-maximal inhibition (IC50) is 90 µM.
In the case of `CNCCCC12CCC(c3ccccc31)c1ccccc12` [Maprotiline], the IC50 in the data set on human GI microtissue turned out to be 65 µM. For the same compound, in the data set on Caco-2 cells, the “Caco-2 TEER IC15/Cmax” value came to 129.
